Data as given in PubChem BioAssay AID1259405 (NCATS, 2018)
Test: 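Mouse-designed siRNAs used to find CHO productivity engineering targets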 (primary screen). System: Chinese hamster CHO-K1 ovary cells with stable secreted eGFP expression. Reagent: single siRNA against mouse genes, 0.8 pmol siRNA per well (2 µl of 400 nM stock). Timing: 3 days. Read-out: 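Percent of the per-plate non-targeting control median for intracellular GFP per well by laser scanning cytometry and for cell viability by ATP luminescence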. Scale: GFP, % of control: higher = more GFP per well, higher productivity; viability (ATP), % of control: higher = more viable cells (more ATP). Hit rule: 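Called active when intracellular GFP, relative to negative control, is at or above 120%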.
In all, the deposit lists about 50,000 reagents; this is a part drawn at random. Of all reagents, about 4,000 (8%) were called active. 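Mouse siRNA library applied to hamster cells; one well for each siRNA.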 The numbers tell different reagents against one gene apart.

For Cul3 #1 the deposit lists GFP, % of control 76.2; viability (ATP), % of control 68.6; inactive.
Silencing of Cul3 #2 came out at: GFP, % of control 126; viability (ATP), % of control 58.2; active.
With knock-down of Cul3 #3 the results were GFP, % of control 80.1; viability (ATP), % of control 110; inactive.
For Ppp2r5c #1, the entry reads GFP, % of control 109; viability (ATP), % of control 91; inactive.
Against Ppp2r5c #2, the entry reads GFP, % of control 60.6; viability (ATP), % of control 54.5; inactive.
Depletion of Ppp2r5c #3 resulted in: GFP, % of control 68.8; viability (ATP), % of control 64; inactive.
Or4k35 #1 showed GFP, % of control 68; viability (ATP), % of control 64.1; inactive.
After knock-down of Or4k35 #2, the record shows GFP, % of control 108; viability (ATP), % of control 38; inactive.
Or4k35 #3 showed GFP, % of control 82.3; viability (ATP), % of control 96.9; inactive.
Silencing of Pcdh20 #1 gave: GFP, % of control 82.3; viability (ATP), % of control 83.6; inactive.
After knock-down of Pcdh20 #2, the screen gave GFP, % of control 46.4; viability (ATP), % of control 43.5; inactive.

In a second layout: entries from further up.
{"Target gene": "Or4k35", "siRNA no.": 1, "GFP, % of control": 68, "viability (ATP), % of control": 64.1, "call": "inactive"}
{"Target gene": "Or4k35", "siRNA no.": 2, "GFP, % of control": 108, "viability (ATP), % of control": 38, "call": "inactive"}

Continued.
With knock-down of Plekho1 #1 the results were GFP, % of control 84.5; viability (ATP), % of control 86.8; inactive.
For Plekho1 #2 the deposit lists GFP, % of control 87.1; viability (ATP), % of control 84.8; inactive.
Plekho1 #3 gave GFP, % of control 90.2; viability (ATP), % of control 74.9; inactive.
With knock-down of Or6b1 #1, the screen gave GFP, % of control 145; viability (ATP), % of control 64.1; active.
Against Or6b1 #2, the values are GFP, % of control 100; viability (ATP), % of control 88.2; inactive.
Or6b1 #3 showed GFP, % of control 89.1; viability (ATP), % of control 72.2; inactive.
